Protein sequences, listed by entry. Tags and fused reporters are not part of them. Lines headed by an entry give the natural chain unless they say otherwise; changes in a name come on top.
UniProt Q8N6T7: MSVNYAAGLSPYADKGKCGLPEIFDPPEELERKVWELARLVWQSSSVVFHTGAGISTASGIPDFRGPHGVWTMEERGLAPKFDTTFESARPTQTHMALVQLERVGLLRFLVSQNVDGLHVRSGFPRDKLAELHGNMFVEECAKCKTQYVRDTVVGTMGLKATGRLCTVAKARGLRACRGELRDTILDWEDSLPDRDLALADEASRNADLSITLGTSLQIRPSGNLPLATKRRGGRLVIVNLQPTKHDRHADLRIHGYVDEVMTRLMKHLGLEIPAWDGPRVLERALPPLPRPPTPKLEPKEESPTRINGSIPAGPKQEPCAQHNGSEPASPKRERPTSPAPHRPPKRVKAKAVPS
UniProt P46527: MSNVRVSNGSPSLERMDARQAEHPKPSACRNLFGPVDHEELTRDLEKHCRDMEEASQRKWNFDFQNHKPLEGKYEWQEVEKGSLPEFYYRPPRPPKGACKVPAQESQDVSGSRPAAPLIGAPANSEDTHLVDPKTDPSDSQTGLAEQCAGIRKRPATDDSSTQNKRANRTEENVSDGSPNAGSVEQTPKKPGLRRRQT

In paper PMC5115890:

Biological target: flag-ΔSIRT6 (core domain deleted) (UniProt Q8N6T7)
Experiment: co-IP; 293 cells transfected with flag-SIRT6 or flag-ΔSIRT6; IP with flag antibody; blots with flag and p27 antibody

- binding: no binding
Substance: p27Kip1 (p27), endogenous (from UniProt P46527 1-198)

No constants are given. Whether binding was seen depends on the method and setting. In cells and extracts the contact can be indirect.
